# Measurements taken from the supplement of paper PMC12819154, “High-throughput peptide-centric local stability assay extends protein–ligand identification to membrane proteins, tissues and bacteria” (Nature Structural & Molecular Biology, 2025).
# By UniProt entry, the sequences of proteins in these tests, tags left out. Where a name states a change or a piece, a line headed by the entry shows the natural chain unless it says otherwise.
# UniProt Q96S44: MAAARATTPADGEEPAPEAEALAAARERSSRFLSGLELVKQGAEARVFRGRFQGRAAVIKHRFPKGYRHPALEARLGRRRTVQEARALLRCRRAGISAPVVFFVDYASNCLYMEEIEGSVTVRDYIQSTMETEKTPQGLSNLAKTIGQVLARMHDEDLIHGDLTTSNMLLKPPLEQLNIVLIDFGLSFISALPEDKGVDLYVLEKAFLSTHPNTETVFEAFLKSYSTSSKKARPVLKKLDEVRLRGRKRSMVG
# UniProt Q99828: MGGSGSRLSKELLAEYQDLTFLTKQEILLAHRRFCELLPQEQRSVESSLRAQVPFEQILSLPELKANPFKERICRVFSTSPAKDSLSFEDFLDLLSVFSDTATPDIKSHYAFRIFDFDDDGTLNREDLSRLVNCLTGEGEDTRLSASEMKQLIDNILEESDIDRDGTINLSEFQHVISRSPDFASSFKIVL
# UniProt Q99608: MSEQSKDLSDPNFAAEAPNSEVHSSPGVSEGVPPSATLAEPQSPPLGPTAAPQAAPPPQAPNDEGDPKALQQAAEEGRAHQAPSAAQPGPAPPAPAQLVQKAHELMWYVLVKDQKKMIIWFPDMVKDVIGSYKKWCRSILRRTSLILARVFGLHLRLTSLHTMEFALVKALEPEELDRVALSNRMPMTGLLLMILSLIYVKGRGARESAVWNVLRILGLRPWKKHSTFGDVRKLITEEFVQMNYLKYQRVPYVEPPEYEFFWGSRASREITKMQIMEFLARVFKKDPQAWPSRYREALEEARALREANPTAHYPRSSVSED
# UniProt Q99684: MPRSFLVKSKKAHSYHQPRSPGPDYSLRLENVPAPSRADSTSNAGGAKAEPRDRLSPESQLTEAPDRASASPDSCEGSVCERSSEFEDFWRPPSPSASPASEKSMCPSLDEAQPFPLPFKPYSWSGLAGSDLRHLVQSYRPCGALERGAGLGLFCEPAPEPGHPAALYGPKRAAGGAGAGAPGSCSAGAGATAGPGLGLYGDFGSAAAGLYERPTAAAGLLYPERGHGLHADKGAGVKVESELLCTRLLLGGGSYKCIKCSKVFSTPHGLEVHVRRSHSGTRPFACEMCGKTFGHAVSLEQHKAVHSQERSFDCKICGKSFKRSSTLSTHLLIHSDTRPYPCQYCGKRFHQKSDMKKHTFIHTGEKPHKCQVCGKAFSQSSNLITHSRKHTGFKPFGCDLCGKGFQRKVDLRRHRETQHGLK
# UniProt Q9BT73: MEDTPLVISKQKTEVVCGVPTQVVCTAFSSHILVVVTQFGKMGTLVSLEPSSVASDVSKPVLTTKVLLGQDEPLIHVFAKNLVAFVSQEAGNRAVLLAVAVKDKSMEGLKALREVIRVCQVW
# UniProt Q99704: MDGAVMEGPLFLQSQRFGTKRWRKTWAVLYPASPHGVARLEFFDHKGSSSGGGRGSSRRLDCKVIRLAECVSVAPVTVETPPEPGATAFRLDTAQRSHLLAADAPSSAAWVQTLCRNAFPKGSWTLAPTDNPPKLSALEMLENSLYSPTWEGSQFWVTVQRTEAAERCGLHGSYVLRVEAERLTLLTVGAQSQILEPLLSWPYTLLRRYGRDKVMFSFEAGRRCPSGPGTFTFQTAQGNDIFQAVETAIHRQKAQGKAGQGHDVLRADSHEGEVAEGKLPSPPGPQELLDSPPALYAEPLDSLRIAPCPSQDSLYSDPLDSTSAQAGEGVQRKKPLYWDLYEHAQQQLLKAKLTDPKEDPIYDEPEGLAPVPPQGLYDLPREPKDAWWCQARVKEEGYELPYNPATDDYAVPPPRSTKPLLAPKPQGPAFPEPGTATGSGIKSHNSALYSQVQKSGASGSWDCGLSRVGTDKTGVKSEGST
# UniProt Q9BQ89: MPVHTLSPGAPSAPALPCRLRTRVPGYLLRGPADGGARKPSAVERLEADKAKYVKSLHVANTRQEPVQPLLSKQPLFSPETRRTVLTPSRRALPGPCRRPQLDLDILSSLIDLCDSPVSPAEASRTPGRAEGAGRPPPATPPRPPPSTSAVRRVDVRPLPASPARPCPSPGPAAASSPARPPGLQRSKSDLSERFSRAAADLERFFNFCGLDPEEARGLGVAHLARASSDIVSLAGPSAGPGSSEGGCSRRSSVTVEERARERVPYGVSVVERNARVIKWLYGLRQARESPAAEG
# UniProt Q9BTX7: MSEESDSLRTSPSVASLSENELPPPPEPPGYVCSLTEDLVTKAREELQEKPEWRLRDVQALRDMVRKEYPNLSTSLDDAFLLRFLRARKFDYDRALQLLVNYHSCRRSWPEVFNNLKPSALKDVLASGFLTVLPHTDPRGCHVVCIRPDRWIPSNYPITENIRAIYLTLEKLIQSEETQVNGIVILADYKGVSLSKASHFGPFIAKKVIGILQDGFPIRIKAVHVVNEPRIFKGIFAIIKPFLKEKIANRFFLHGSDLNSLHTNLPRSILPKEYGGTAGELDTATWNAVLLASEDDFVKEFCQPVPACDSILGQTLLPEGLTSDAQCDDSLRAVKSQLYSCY
# UniProt Q99653: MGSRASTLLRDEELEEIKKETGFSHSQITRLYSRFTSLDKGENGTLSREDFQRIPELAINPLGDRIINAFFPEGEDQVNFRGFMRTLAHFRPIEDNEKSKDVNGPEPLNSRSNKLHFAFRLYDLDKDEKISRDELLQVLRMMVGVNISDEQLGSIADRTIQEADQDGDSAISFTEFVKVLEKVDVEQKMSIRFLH
# UniProt Q99767, whole entry: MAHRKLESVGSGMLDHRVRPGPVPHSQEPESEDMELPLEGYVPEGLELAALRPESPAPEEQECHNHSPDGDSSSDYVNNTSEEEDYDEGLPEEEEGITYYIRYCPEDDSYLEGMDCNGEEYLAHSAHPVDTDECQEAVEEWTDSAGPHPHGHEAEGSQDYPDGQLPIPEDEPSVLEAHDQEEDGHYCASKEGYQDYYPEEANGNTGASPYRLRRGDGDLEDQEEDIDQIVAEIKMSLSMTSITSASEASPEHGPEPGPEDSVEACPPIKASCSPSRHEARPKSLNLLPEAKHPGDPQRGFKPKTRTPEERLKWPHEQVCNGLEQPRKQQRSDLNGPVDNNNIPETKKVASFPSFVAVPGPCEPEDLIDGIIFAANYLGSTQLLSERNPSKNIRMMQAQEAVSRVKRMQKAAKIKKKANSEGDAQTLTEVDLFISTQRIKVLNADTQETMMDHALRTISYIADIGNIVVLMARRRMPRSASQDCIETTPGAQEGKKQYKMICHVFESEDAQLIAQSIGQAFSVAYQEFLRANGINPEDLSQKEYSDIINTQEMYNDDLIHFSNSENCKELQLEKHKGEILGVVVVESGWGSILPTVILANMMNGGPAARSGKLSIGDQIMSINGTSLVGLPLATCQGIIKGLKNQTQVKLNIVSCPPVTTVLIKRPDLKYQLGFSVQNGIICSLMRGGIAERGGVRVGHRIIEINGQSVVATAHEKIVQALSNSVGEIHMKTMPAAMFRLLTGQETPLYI
# UniProt Q9BQG0: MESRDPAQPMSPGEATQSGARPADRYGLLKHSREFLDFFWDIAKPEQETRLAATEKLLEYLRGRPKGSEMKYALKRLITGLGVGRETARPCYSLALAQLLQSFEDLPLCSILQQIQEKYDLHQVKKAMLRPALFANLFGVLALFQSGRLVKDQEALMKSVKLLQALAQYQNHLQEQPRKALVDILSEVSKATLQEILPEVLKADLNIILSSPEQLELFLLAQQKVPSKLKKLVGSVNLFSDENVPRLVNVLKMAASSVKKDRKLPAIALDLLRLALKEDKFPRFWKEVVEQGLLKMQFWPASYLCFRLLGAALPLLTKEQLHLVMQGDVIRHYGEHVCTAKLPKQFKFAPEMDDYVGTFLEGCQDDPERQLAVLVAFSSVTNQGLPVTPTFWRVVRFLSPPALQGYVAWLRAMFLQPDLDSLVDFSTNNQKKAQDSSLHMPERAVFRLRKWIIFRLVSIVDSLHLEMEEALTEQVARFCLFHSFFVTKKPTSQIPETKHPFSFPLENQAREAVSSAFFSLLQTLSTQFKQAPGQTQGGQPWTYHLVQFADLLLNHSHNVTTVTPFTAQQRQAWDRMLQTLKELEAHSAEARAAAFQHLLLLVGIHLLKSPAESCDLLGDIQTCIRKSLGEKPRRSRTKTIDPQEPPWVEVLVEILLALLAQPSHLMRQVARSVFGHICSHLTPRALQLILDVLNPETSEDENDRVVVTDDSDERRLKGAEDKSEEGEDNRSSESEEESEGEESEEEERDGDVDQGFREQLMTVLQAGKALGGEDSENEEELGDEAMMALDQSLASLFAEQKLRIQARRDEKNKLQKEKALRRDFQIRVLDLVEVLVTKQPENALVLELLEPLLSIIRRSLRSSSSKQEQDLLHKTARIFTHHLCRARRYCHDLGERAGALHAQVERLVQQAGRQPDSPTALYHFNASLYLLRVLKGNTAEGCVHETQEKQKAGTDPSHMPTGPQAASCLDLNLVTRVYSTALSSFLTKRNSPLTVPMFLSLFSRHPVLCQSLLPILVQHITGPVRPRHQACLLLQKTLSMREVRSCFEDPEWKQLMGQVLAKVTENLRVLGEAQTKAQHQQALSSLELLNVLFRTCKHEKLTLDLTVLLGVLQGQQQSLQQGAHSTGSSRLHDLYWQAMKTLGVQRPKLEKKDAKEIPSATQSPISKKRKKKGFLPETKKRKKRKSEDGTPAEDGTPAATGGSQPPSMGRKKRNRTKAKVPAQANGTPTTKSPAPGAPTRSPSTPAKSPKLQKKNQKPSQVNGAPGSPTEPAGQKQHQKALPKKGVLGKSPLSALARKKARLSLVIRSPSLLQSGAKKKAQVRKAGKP
# UniProt Q96S53: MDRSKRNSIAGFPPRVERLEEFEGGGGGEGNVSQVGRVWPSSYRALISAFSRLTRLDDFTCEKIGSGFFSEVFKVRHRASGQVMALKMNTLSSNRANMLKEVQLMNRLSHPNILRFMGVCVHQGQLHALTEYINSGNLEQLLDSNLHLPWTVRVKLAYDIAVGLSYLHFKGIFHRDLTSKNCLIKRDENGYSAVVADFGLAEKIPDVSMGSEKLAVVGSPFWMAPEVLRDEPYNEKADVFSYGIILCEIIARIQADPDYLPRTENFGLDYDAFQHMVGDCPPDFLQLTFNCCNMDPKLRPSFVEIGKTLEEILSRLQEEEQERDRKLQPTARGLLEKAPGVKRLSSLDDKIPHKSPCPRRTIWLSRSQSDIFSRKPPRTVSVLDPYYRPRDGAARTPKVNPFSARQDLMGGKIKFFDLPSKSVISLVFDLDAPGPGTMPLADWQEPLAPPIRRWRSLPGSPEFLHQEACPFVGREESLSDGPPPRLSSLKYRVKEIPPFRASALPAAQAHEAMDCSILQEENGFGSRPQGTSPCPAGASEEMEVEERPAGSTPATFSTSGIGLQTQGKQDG
# UniProt Q99719: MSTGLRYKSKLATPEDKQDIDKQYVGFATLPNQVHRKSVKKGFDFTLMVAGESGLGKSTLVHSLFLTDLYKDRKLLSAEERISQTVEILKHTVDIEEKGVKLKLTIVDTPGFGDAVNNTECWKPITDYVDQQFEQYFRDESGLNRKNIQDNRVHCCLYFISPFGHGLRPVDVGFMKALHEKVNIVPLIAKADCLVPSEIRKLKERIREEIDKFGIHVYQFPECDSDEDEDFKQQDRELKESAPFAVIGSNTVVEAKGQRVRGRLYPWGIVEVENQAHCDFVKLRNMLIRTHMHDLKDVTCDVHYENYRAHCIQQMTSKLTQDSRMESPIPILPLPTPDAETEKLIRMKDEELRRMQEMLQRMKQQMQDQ
# UniProt Q99638: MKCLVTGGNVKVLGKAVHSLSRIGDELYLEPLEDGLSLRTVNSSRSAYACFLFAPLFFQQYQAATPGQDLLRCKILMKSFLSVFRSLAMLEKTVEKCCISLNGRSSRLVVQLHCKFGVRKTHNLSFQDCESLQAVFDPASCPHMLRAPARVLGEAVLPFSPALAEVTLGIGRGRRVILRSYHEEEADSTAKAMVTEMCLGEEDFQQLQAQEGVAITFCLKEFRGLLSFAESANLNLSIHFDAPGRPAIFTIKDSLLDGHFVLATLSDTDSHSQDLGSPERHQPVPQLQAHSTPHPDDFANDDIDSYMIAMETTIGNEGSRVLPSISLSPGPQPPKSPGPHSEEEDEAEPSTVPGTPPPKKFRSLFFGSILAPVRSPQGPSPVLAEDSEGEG
# UniProt Q9BQE5: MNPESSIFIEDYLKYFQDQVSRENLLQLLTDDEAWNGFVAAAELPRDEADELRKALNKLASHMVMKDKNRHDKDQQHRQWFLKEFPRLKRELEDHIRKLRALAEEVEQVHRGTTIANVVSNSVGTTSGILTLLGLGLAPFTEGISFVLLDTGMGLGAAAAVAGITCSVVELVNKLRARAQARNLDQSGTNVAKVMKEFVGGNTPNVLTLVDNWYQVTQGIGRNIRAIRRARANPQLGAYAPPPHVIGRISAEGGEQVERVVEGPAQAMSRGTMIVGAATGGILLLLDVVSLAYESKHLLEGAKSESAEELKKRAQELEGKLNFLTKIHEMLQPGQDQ
# Some of the results follow. Most entries show no effect beyond the scatter of the controls.
# Compound: Cc1nc(Nc2ncc(C(=O)Nc3c(C)cccc3Cl)s2)cc(N2CCN(CCO)CC2)n1 [dasatinib]
# Test: log2 fold change of tryptic peptide abundance, ligand vs vehicle (limited proteolysis) (log2 ratio); higher = more trypsin-susceptible (destabilized)
# Settings: ligand concentration: 5 uM; sample: K562 cleared lysate
row,Target,log2 fold change
1,"TP53RK (peptide sequence: FLSGLELVK, peptide start residue: 32) (UniProt Q96S44)",-0.0409
2,"CIB1 (peptide sequence: FCELLPQEQR, peptide start residue: 34) (UniProt Q99828)",0.249
3,"TCF25 (peptide sequence: LSPISHGNTIALFFR, peptide start residue: 601) (UniProt Q9BQ70)",-0.35
4,"MSTO1 (peptide sequence: LTTHKEELYPK, peptide start residue: 101) (UniProt Q9BUK6)",-0.0798
5,"TBCB (peptide sequence: SLTIAEFK, peptide start residue: 31) (UniProt Q99426)",-0.198
6,"UniProt Q99607 (peptide sequence: DQAHLQPLPTQVVSR, peptide start residue: 572)",-0.134
7,"UniProt Q99608 (peptide sequence: ALQQAAEEGR, peptide start residue: 69)",0.34
8,"DIDO1 (peptide sequence: SIMFNLKDPK, peptide start residue: 727) (UniProt Q9BTC0)",-0.232
9,"PTPN18 (peptide sequence: SAEEAPLYSK, peptide start residue: 382) (UniProt Q99952)",0.186
10,"CDCA3 (peptide sequence: SVPVTPARPPPHNK, peptide start residue: 6) (UniProt Q99618)",0.757
11,"GFI1 (peptide sequence: AFSQSSNLITHSR, peptide start residue: 284) (UniProt Q99684)",0.0596
12,"PSMG3 (peptide sequence: VLLGQDEPLIHVFAK, peptide start residue: 66) (UniProt Q9BT73)",-0.0927
13,"DOK1 (peptide sequence: VGTDKTGVK, peptide start residue: 468) (UniProt Q99704)",-0.226
14,"PELO (peptide sequence: MGAYHTIELEPNR, peptide start residue: 96) (UniProt Q9BRX2)",-0.0944
15,"FAM110A (peptide sequence: PVHTLSPGAPSAPALPCR, peptide start residue: 2) (UniProt Q9BQ89)",0.466
16,"TTPAL (peptide sequence: ALQLLVNYHSCR, peptide start residue: 95) (UniProt Q9BTX7)",0.267
17,"UniProt Q99653 (peptide sequence: IPELAINPLGDR, peptide start residue: 54)",-0.521
18,"APBA2 (peptide sequence: SASQDCIETTPGAQEGKK, peptide start residue: 478) (UniProt Q99767)",0.795
19,"MYBBP1A (peptide sequence: LSLVIRSPSLLQSGAK, peptide start residue: 1302) (UniProt Q9BQG0)",0.467
20,"TESK2 (peptide sequence: ASGQVMALK, peptide start residue: 79) (UniProt Q96S53)",-0.636
21,"HDHD3 (peptide sequence: LLTWDVKDTLLR, peptide start residue: 9) (UniProt Q9BSH5)",0.304
22,"SEPTIN5 (peptide sequence: ADCLVPSEIR, peptide start residue: 191) (UniProt Q99719)",-0.403
23,"CLCC1 (peptide sequence: HIGGPESEPPQALRPR, peptide start residue: 362) (UniProt Q96S66)",0.418
24,"PAFAH2 (peptide sequence: AMLAFLQK, peptide start residue: 352) (UniProt Q99487)",0.118
25,"RAD9A (peptide sequence: TVEKCCISLNGR, peptide start residue: 93) (UniProt Q99638)",-0.356
26,"POP1 (peptide sequence: DDGENAKPIK, peptide start residue: 388) (UniProt Q99575)",-0.43
27,"UniProt Q9BQE5 (peptide sequence: AQELEGKLNFLTK, peptide start residue: 314)",0.394

# An excerpt of these results, with bars between the fields:
row | Target | log2 fold change
5 | TBCB (peptide sequence: SLTIAEFK, peptide start residue: 31) (UniProt Q99426) | -0.198
12 | PSMG3 (peptide sequence: VLLGQDEPLIHVFAK, peptide start residue: 66) (UniProt Q9BT73) | -0.0927
